{"source": "patent US10323078B2", "about": "“Isolated peptides and fragments thereof from fibrinogen for use as drugs, particularly in skin inflammatory diseases” (Universite Paris Descartes, priority 2015, dated 2019)", "key": {"HaCaT cells": {"system": "HaCaT cells", "experiment": "IL-8 production by P. acnes-stimulated HaCaT (ELISA)", "format": "cell-based, human", "procedure": "For experiences of stimulation with P. acnes, cells were incubated with the P. acnes suspension adjusted at the appropriate concentration, pre-treated for 1 h at 37° C. or not with fibrinogen recombinant peptides Fg1 and Fg2 at the concentrations 0.87, 1.75, 3.5 or 7 μM for the desired period of time at 37° C. in 5% CO2.\n(§1) Human IL-1ß, IL-8, IL-12, hBD-2, and TNF-α protein concentration was measured in the supernatants of stimulated cells using various ELISA Set kits (Ready-Set-Go kit from eBioscience for acne experiments, and for psoriasis experiments the Duo set IL-8 kit from R&D Systems and the BD-2 Human Development (hBD-2) from Peprotech) according to the manufacturer's instructions. We used serial dilutions of recombinant human IL-1ß, IL-8, IL-12 and TNF-α for standard curve. The optical density was determined at 450 nm at a wavelength correction of 540 nm.\nTo assess the efficacy of Fg1 recombinant peptide, the production of O2^∘− and H2O2 by HaCaT cells NHDK, THP-1, MRC5 and HDF stimulated by pretreated P. acnes strains 6919, RON and PIE was measured. The amount of ROS produced was compared to that produced by the stimulated cells with untreated bacteria. Production baseline was obtained by measuring ROS on unstimulated cells. The production of IL-1ß, IL-8, IL-12 and TNF-α was also measured in all conditions cited above. […]"}, "NHEK cells [1]": {"system": "NHEK cells", "experiment": "In vitro model of psoriasis: hBD-2 release by keratinocytes stimulated by IL-17, OSM and TNF-α", "format": "cell-based, human", "settings": "NHEK stimulated by IL-17, OSM and TNF-α (5 ng/ml each); 12.2 μM; 72 h", "procedure": "FIG. 31: Inhibition of hBD-2 production by keratinocytes stimulated by Il-17, OSM and TNF-α. NHEK cells were stimulated by a combination of Il-17, OSM and TNF-α (5 ng/ml each) and treated with JAK inhibitor at 10 μM (positive control) or Fg1.1.1 at concentrations ranging from 1.52 to 12.2 μM for 72 h. Measurement of hBD-2 production was realized by ELISA and cytotoxicity was determined by the MTT assay as described in Materials and Methods Control experiments were done with untreated and unstimulated NHEK cells (cell alone) and with untreated NHEK stimulated by the combination of Il-17, OSM and TNF-α. Data are means±S.D. of three individual experiments. Statistical significance is indicated by * (P<0.05), ** (P<0.01), and *** (P<0.001), respectively.\nFor experiences using an in vitro model of psoriasis, cutaneous primary human keratinocytes (NHDK) were grown in culture medium for 24 hours. […]\nas §1, with “We used serial dilutions of recombinant human IL-1ß, IL-8, IL-12 and TNF-α for standard curve.” left out, “nm. […]” for “nm.”"}, "[2]": {"system": "P. acnes-induced inflammation", "experiment": "Histopathological analysis of mouse ears", "format": "in vivo", "settings": "mice, 96 h"}, "[3]": {"system": "P. acnes-induced lymphocyte activation", "experiment": "P. acnes-induced lymphocyte activation (proliferation of ear ganglion lymphocytes, UptiBlue)", "format": "in vivo", "settings": "mice; ear ganglion lymphocytes at 96 h, 72 h growth with anti-CD3 and anti-CD28"}, "NHEK cells [4]": {"system": "NHEK cells", "experiment": "In vitro model of psoriasis: IL-8 release by keratinocytes stimulated by IL-17, OSM and TNF-α", "format": "cell-based, human", "procedure": "FIG. 30: Inhibition of Il-8 production by keratinocytes stimulated by Il-17, OSM and TNF-α. NHEK cells were stimulated by a combination of Il-17, OSM and TNF-α (3 ng/ml each) and treated with JAK inhibitor at 10 μM (positive control) or Fg1.1.1 at concentrations ranging from 1.52 to 12.2 μM for 48 h. Measurement of IL-8 production was realized by ELISA and cytotoxicity was determined by the MTT assay as described in Materials and Methods Control experiments were done with untreated and unstimulated NHEK cells (cell alone) and with untreated NHEK stimulated by the combination of Il-17, OSM and TNF-α. Data are means±S.D. of three individual experiments. Statistical significance is indicated by * (P<0.05), ** (P<0.01), and *** (P<0.001), respectively.\nFor experiences using an in vitro model of psoriasis, cutaneous primary human keratinocytes (NHDK) were grown in culture medium for 24 hours. Cells were then treated or not (negative control) by peptide Fg1.1.1 at the concentrations of 1.52, 3.05, 6.1 and 12.2 μM or the reference (JAK Inhibitor I at 10 μM; positive control) and pre-incubated for 2 or 24 hours. […]\nas §1, with “We used serial dilutions of recombinant human IL-1ß, IL-8, IL-12 and TNF-α for standard curve.” left out\nTo assess Fg1.1.1 anti-inflammatory activity on psoriasis, we used an in vitro model of normal human epidermal keratinocytes (NHEK) stimulated by a pro-inflammatory mixture reproducing a type phenotype “psoriasis” (combination of IL-17+OSM+TNF-α). We therefore evaluated Fg1.1.1 ability to inhibit the release of Il-8 and of ß-defensin-2 protein (hBD-2) by the keratinocytes stimulated in this condition."}}, "note": "At least one peptide structure holds a part that was inferred or is arguable (an end, a ring closure or a residue). Ends that are not written are not given here."}
{"sequence": "LLLCVFLVKSQGVND [Fg1.1.1, LLLCVFLVKSQGVND]", "values": [{"measurement": "Percentage of inhibition of IL-8 production, Fg1.1.1 compared with Fg1", "setting": "HaCaT cells; P. acnes 6919 pre-treated 1 h with peptide 2.5, 5 and 10 μM", "value": "higher"}, {"measurement": "Inhibition of IL-8 production", "setting": "HaCaT cells; P. acnes 6919 strain pre-treated with peptide 2.5 to 20 μM", "value": "decreases in a dose-dependent manner"}, {"measurement": "Inhibition of hBD-2 release", "setting": "NHEK cells [1]", "value": "significantly inhibited the release of hBD-2"}, {"measurement": "Ear swelling and infiltrated inflammatory cells (histopathology)", "setting": "[2]; peptide injection (P. acnes mixed with Fg1.1.1)", "value": "have been reduced"}, {"measurement": "Ear swelling and infiltrated inflammatory cells (histopathology)", "setting": "[2]; peptide topical application", "value": "have been reduced"}, {"measurement": "Level of lymphocyte activation", "setting": "[3]", "value": "reduced level of lymphocyte activation"}, {"measurement": "Inhibition of IL-8 release", "setting": "NHEK cells [4]; NHEK stimulated by IL-17, OSM and TNF-α (3 ng/ml each), 6.1 μM, 48 h", "value": 25, "unit": "%"}, {"measurement": "Inhibition of IL-8 release", "setting": "NHEK cells [4]; NHEK stimulated by IL-17, OSM and TNF-α (3 ng/ml each), 12.2 μM, 48 h", "value": 49, "unit": "%"}, {"measurement": "Inhibition of IL-8 release", "setting": "NHEK cells [4]; NHEK stimulated by IL-17, OSM and TNF-α, lower concentrations (1.25 and 3.05 μM)", "value": "smaller effect"}]}
